Assay [1] deals with T1, BioID2(Gly40Ser)-SEC22A (human) (UniProt Q96IW7).
T1 sequence: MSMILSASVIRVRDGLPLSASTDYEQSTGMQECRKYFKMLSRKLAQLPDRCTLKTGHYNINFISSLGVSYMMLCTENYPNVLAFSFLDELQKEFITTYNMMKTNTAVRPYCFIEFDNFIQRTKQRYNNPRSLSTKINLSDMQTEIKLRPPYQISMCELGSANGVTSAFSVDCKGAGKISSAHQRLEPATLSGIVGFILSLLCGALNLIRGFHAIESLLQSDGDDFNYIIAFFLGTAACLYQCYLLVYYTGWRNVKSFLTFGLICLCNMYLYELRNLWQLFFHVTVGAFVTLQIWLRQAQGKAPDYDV
Briefly: proximity labelling; reciprocal BioID: BioID2(Gly40Ser)-SEC22A transiently expressed in HeLa cells (WT compared with RAB3GAP-null and RAB18-null), 50 uM biotin 6 h; streptavidin Dynabeads, label-free quantitative mass spectrometry.

By UniProt entry, the sequences of proteins in these tests, tags left out.
UniProt Q9NP72: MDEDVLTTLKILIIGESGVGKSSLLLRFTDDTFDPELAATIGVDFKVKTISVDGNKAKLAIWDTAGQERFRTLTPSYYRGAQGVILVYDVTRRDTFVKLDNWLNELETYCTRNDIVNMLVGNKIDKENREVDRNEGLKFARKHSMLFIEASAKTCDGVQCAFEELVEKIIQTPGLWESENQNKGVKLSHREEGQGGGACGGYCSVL

In assay [2] the target is BirA*-RAB18, Q9NP72. As to the kind of experiment: proximity labelling; BioID: BirA*-RAB18 transiently expressed in WT HeLa cells (compared with RAB3GAP1-, RAB3GAP2- and TRAPPC9-null cells), 50 uM biotin 24 h; biotinylated proteins purified on streptavidin Dynabeads, label-free quantitative mass spectrometry; hits are proteins with RAB3GAP-null:WT intensity ratio <=0.5. The conditions noted are these: remark: other sources report otherwise.

For assay [3], the target named is BirA*-RAB18, Q9NP72. Briefly: proximity labelling; independent BioID experiment with BirA*-RAB18 in WT HeLa cells; streptavidin-purified samples read by Western blotting. Particulars: remark: other sources report otherwise. Background: Immunoblotting shows a protein as a band on a membrane.
Assay [4] deals with BirA*-RAB18 (UniProt Q9NP72). The description is as above.
For assay [5], the target named is BirA*-RAB18 (UniProt Q9NP72). As to the kind of experiment: proximity labelling; BioID: BirA*-RAB18 transiently expressed in WT HeLa cells (compared with RAB3GAP1-, RAB3GAP2- and TRAPPC9-null cells), 50 uM biotin 24 h; biotinylated proteins purified on streptavidin Dynabeads, label-free quantitative mass spectrometry; hits are proteins with RAB3GAP-null:WT intensity ratio <=0.5.

Assay [6] concerns the target BirA*-RAB18 (UniProt Q9NP72). As to the kind of experiment: proximity labelling; independent BioID experiment with BirA*-RAB18 in RAB3GAP1-null HeLa cells; streptavidin-purified samples read by Western blotting.

No constants are given. Whether binding was seen depends on the method and setting. In cells and extracts the contact can be indirect. Here binding means that the protein was enriched with, or labelled near, the bait; the list need not be complete. For part of these data: No binding means not detected with the bait.

Regarding “endogenous RAB18 (from UniProt Q9NP72 1-206)”, in assay [1], the binding entry is “binds”.

B1: SPG20, Q8N0X7 1-666 (protein)
chain: MEQEPQNGEPAEIKIIREAYKKAFLFVNKGLNTDELGQKEEAKNYYKQGIGHLLRGISISSKESEHTGPGWESARQMQQKMKETLQNVRTRLEILEKGLATSLQNDLQEVPKLYPEFPPKDMCEKLPEPQSFSSAPQHAEVNGNTSTPSAGAVAAPASLSLPSQSCPAEAPPAYTPQAAEGHYTVSYGTDSGEFSSVGEEFYRNHSQPPPLETLGLDADELILIPNGVQIFFVNPAGEVSAPSYPGYLRIVRFLDNSLDTVLNRPPGFLQVCDWLYPLVPDRSPVLKCTAGAYMFPDTMLQAAGCFVGVVLSSELPEDDRELFEDLLRQMSDLRLQANWNRAEEENEFQIPGRTRPSSDQLKEASGTDVKQLDQGNKDVRHKGKRGKRAKDTSSEEVNLSHIVPCEPVPEEKPKELPEWSEKVAHNILSGASWVSWGLVKGAEITGKAIQKGASKLRERIQPEEKPVEVSPAVTKGLYIAKQATGGAAKVSQFLVDGVCTVANCVGKELAPHVKKHGSKLVPESLKKDKDGKSPLDGAMVVAASSVQGFSTVWQGLECAAKCIVNNVSAETVQTVRYKYGYNAGEATHHAVDSAVNVGVTAYNINNIGIKAMVKKTATQTGHTLLEDYQIVDNSQRENQEGAANVNVRGEKDEQTKEVKEAKKKDK
With B1, the binding result with BirA*-RAB18, Q9NP72 [2] is given as “binds”; with BirA*-RAB18, Q9NP72 [3] it was “binds”.

B2: STX18 (protein, UniProt Q9P2W9 1-335)
chain: MAVDITLLFRASVKTVKTRNKALGVAVGGGVDGSRDELFRRSPRPKGDFSSRAREVISHIGKLRDFLLEHRKDYINAYSHTMSEYGRMTDTERDQIDQDAQIFMRTCSEAIQQLRTEAHKEIHSQQVKEHRTAVLDFIEDYLKRVCKLYSEQRAIRVKRVVDKKRLSKLEPEPNTKTRESTSSEKVSQSPSKDSEENPATEERPEKILAETQPELGTWGDGKGEDELSPEEIQMFEQENQRLIGEMNSLFDEVRQIEGRVVEISRLQEIFTEKVLQQEAEIDSIHQLVVGATENIKEGNEDIREAIKNNAGFRVWILFFLVMCSFSLLFLDWYDS
B2: the binding entry with BirA*-RAB18 [4] and with BirA*-RAB18 [5] was “binds” in each case.

B3: RAB3GAP2 (protein, UniProt Q9H2M9 1-1393)
chain: MACSIVQFCYFQDLQAARDFLFPHLREEILSGALRRDPSKSTDWEDDGWGAWEENEPQEPEEEGNTCKTQKTSWLQDCVLSLSPTNDLMVIAREQKAVFLVPKWKYSDKGKEEMQFAVGWSGSLNVEEGECVTSALCIPLASQKRSSTGRPDWTCIVVGFTSGYVRFYTENGVLLLAQLLNEDPVLQLKCRTYEIPRHPGVTEQNEELSILYPAAIVTIDGFSLFQSLRACRNQVAKAAASGNENIQPPPLAYKKWGLQDIDTIIDHASVGIMTLSPFDQMKTASNIGGFNAAIKNSPPAMSQYITVGSNPFTGFFYALEGSTQPLLSHVALAVASKLTSALFNAASGWLGWKSKHEEEAVQKQKPKVEPATPLAVRFGLPDSRRHGESICLSPCNTLAAVTDDFGRVILLDVARGIAIRMWKGYRDAQIGWIQTVEDLHERVPEKADFSPFGNSQGPSRVAQFLVIYAPRRGILEVWSTQQGPRVGAFNVGKHCRLLYPGYKIMGLNNVTSQSWQPQTYQICLVDPVSGSVKTVNVPFHLALSDKKSERAKDMHLVKKLAALLKTKSPNLDLVETEIKELILDIKYPATKKQALESILASERLPFSCLRNITQTLMDTLKSQELESVDEGLLQFCANKLKLLQLYESVSQLNSLDFHLDTPFSDNDLALLLRLDEKELLKLQALLEKYKQENTRTNVRFSDDKDGVLPVKTFLEYLEYEKDVLNIKKISEEEYVALGSFFFWKCLHGESSTEDMCHTLESAGLSPQLLLSLLLSVWLSKEKDILDKPQSICCLHTMLSLLSKMKVAIDETWDSQSVSPWWQQMRTACIQSENNGAALLSAHVGHSVAAQISNNMTEKKFSQTVLGADSEALTDSWEALSLDTEYWKLLLKQLEDCLILQTLLHSKGNTQTSKVSSLQAEPLPRLSVKKLLEGGKGGIADSVAKWIFKQDFSPEVLKLANEERDAENPDEPKEGVNRSFLEVSEMEMDLGAIPDLLHLAYEQFPCSLELDVLHAHCCWEYVVQWNKDPEEARFFVRSIEHLKQIFNAHVQNGIALMMWNTFLVKRFSAATYLMDKVGKSPKDRLCRRDVGMSDTAMTSFLGSCLDLLQILMEADVSRDEIQVPVLDTEDAWLSVEGPISIVELALEQKHIHYPLVEHHSILCSILYAVMRFSLKTVKPLSLFDSKGKNAFFKDLTSIQLLPSGEMDPNFISVRQQFLLKVVSAAVQAQHSATKVKDPTEEATPTPFGKDQDWPALAVDLAHHLQVSEDVVRRHYVGELYNYGVDHLGEEAILQVHDKEVLASQLLVLTGQRLAHALLHTQTKEGMELLARLPPTLCTWLKAMDPQDLQNTEVPIATTAKLVNKVIELLPEKHGQYGLALHLIEAVEAISLPSL
Consider B3, for which the figures for the binding result in the assay with BirA*-RAB18 [4], with BirA*-RAB18 [5] and with BirA*-RAB18 [6] were “binds”, “binds” and “no binding (only in RAB3GAP1-null cells)”, respectively.

B4: ZW10 (protein, UniProt O43264 1-779)
chain: MASFVTEVLAHSGRLEKEDLGTRISRLTRRVEEIKGEVCNMISKKYSEFLPSMQSAQGLITQVDKLSEDIDLLKSRIESEVRRDLHVSTGEFTDLKQQLERDSVVLSLLKQLQEFSTAIEEYNCALTEKKYVTGAQRLEEAQKCLKLLKSRKCFDLKILKSLSMELTIQKQNILYHLGEEWQKLIVWKFPPSKDTSSLESYLQTELHLYTEQSHKEEKTPMPPISSVLLAFSVLGELHSKLKSFGQMLLKYILRPLASCPSLHAVIESQPNIVIIRFESIMTNLEYPSPSEVFTKIRLVLEVLQKQLLDLPLDTDLENEKTSTVPLAEMLGDMIWEDLSECLIKNCLVYSIPTNSSKLQQYEEIIQSTEEFENALKEMRFLKGDTTDLLKYARNINSHFANKKCQDVIVAARNLMTSEIHNTVKIIPDSKINVPELPTPDEDNKLEVQKVSNTQYHEVMNLEPENTLDQHSFSLPTCRISESVKKLMELAYQTLLEATTSSDQCAVQLFYSVRNIFHLFHDVVPTYHKENLQKLPQLAAIHHNNCMYIAHHLLTLGHQFRLRLAPILCDGTATFVDLVPGFRRLGTECFLAQMRAQKGELLERLSSARNFSNMDDEENYSAASKAVRQVLHQLKRLGIVWQDVLPVNIYCKAMGTLLNTAISEVIGKITALEDISTEDGDRLYSLCKTVMDEGPQVFAPLSEESKNKKYQEEVPVYVPKWMPFKELMMMLQASLQEIGDRWADGKGPLAAAFSSSEVKALIRALFQNTERRAAALAKIK
Turning to B4, the binding result with BirA*-RAB18 [4] is listed as “binds”; with BirA*-RAB18 [5], “binds”; with BirA*-RAB18 [6], “no binding (only in RAB3GAP1-null cells)”.

B5: SEC22A (endogenous) (protein, UniProt Q96IW7 1-307)
chain: MSMILSASVIRVRDGLPLSASTDYEQSTGMQECRKYFKMLSRKLAQLPDRCTLKTGHYNINFISSLGVSYMMLCTENYPNVLAFSFLDELQKEFITTYNMMKTNTAVRPYCFIEFDNFIQRTKQRYNNPRSLSTKINLSDMQTEIKLRPPYQISMCELGSANGVTSAFSVDCKGAGKISSAHQRLEPATLSGIVGFILSLLCGALNLIRGFHAIESLLQSDGDDFNYIIAFFLGTAACLYQCYLLVYYTGWRNVKSFLTFGLICLCNMYLYELRNLWQLFFHVTVGAFVTLQIWLRQAQGKAPDYDV
B5: the binding entry in the assay with BirA*-RAB18 [5] is listed as “binds”.

The values above are taken from publication PMC10641524.
